These are yes or no findings as the source states them, for the method shown. Some binding calls cover weakened binding; strength is not graded here.
Target: biotin-labeled human PAD4 protein (human) (UniProt Q9UM07)
Test: SPR, Biacore T200, biotin-labeled human PAD4 captured on chip, 10 nM IgG as analyte

Chains of the proteins cited; added tags and fusions are not shown. Lines headed by an entry give the natural chain unless they say otherwise; changes in a name come on top.
UniProt Q9UM07: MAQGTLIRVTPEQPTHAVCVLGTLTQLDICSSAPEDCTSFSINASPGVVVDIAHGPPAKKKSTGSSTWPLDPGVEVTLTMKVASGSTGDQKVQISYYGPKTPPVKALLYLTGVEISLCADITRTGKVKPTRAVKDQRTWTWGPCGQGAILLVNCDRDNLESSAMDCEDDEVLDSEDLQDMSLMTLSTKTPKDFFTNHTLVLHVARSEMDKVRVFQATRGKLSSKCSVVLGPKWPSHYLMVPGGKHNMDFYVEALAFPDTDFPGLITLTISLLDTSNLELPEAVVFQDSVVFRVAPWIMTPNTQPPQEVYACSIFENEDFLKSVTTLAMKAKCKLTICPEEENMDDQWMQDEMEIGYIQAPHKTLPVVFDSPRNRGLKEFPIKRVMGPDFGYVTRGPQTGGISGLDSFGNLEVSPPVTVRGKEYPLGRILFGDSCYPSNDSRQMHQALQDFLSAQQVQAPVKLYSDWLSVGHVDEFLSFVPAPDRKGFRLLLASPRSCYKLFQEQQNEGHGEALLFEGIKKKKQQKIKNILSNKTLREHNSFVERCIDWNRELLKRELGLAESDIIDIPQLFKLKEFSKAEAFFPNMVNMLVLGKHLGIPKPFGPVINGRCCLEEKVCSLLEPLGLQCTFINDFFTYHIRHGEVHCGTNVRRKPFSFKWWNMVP

binding: binds
B1: Lib1(6R)-1-39 (antibody, human IgG1, lambda, V domains shown)
VH: EVQLLESGGGLVQPGGSLRLSCAASGFTFSTYAMGWVRQAPGKGLEFVAAIRNDGSWTGTSVNAKTRFTISRDNSKNTLYLQMNSLRAEDTAVYYCAKYTGSSGGSIGAWGQGTLVTVSS
VL: SYELTQPPSVSVSPGQTARITCSGGNRNYYYGWYQQKPGQAPVTVIYANDKRPSGIPERFSGSNSGSTTTLTISGVQAEDEADYYCGTATTGKYVFGGGTKLTVLG
